Laboratory results reported in patent publication US20030087315A1 (MCP HAHNEMANN UNIVERSITY, published 2003).
These are yes or no findings as the source states them, for the method shown. Binding can be weak; no strength is given.

Assays:
[1] = molecular target: type I collagen; test: phage display panning, specifically-binding particle; cycles: Type I Collagen, α1-776/796, Type I Collagen; eluent pH 2.2 buffer; 5 isolated particles
[2] = molecular target: type I collagen; test: phage display panning, specifically-binding particle; cycles: Type I Collagen x3; eluent pH 2.2 buffer; 10 isolated particles
[3] = molecular target: type I collagen; test: phage display panning, specifically-binding particle; cycles: Type I Collagen x3; eluent α1-776/796; 10 isolated particles
[4] = molecular target: type I collagen; test: phage display panning, specifically-binding particle; cycles: α1-776/796, Type I Collagen, α1-776/796; eluent pH 2.2 buffer; 4 isolated particles
[5] = molecular target: type I collagen; test: phage display panning, specifically-binding particle; cycles: Type I Collagen, α1-776/796, Type I Collagen; eluent pH 2.2 buffer; 1 isolated particle
[6] = molecular target: type I collagen; test: phage display panning, specifically-binding particle; cycles: α1-776/796, Type I Collagen, α1-776/796; eluent pH 2.2 buffer; 1 isolated particle
[7] = molecular target: type I collagen; test: phage display panning, specifically-binding particle; cycles: α1-776/796, Type I Collagen, α1-776/796; eluent pH 2.2 buffer; 2 isolated particles

LIQPPRYSTTVS
binding [1]: binds | binding [2]: binds

SHALPLTWSTAA
binding [3]: binds

NHVHRMHATPAY
binding [4]: binds

TMATMFTRDLSN
binding [5]: binds

HSSLKLPNLSHR
binding [6]: binds

SHPWNAQRELSV
binding [5]: binds

TFWHLTPPRGYY
binding [7]: binds

VHWWIPVSTGTA
binding [7]: binds
